# Assay results: ChEMBL document CHEMBL2331442, “Synthesis and structure-activity relationships of N-methyl-5,6,7-trimethoxylindoles as novel antimitotic and vascular disrupting agents” (J Med Chem, 2013)
# Tested on: HUVEC
# Test: Selectivity ratio of IC50 for quesicent HUVECs to IC50 for activated HUVECs
# Assay type: functional, Homo sapiens
structure (smiles),measurement,value
COc1cc2c(c(OC)c1OC)-c1ccc(OC)c(=O)cc1[C@@H](NC(C)=O)CC2 [COLCHICINE],Ratio IC50,0.85
